# Results taken from the supplement of paper PMC8728848.
# Some of the results follow.
# B1: LF82 (Escherichia coli) (protein)
# chain: ADWGPCRTASGDPFIFVTSFTKNIQNPTDNVTGQTYPDFYQWALGDKYSGVCECPSPNPTEARPTLYKTESTLAAGHNSTYFKITNNLEVSTRVYIANVGNVQVPFINKSNSQPGRECDQPTFGWTTGSKGQLSLYIAKPFVGEQNIPQTIIVSVFGTKKENVYSSVPISQVLLSGKVTVTQGCELAAGTSLDIDFGEYQAHDFKGRTGQPPQNVQKIQKELTFNCTNISDGVHIYLSLEGTPNAAYPSAISLGNADVGAVIEDGKGNILKPNDSNSLLEMNPGSLYEYVKRKVTTTITAYPVSTTGKLPAAGDYSGVATMHVELDGGGGGGGGGGATTDLGAKGTLKFSLKISQGHHHHHH
# Columns and labels:
# Assay in all cases: glycan array binding signal (z-score within array); higher = stronger binding
# Conditions in all cases: glycan notation: IUPAC condensed, linker removed
# [1] = target: Fuc(a1-2)[Gal(a1-4)]Gal(b1-4)GlcNAc
# In short: (§1)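 The Consortium for Functional Glycomics database supplied 3228 glycan arrays, of which those lacking an available protein sequence were dropped. The binding signal, a within-array Z-score, was averaged across arrays of the same protein sequence and across linkers. Negative scores can be read as non-binding.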
# [2] = target: Fuc(a1-2)[GalNAc(a1-3)]Gal
# In short: as §1
# [3] = target: Fuc(a1-2)[GalNAc(a1-3)]Gal(b1-3)GalNAc(a1-3)[Fuc(a1-2)]Gal(b1-4)GlcNAc
# In short: as §1
# [4] = target: Fuc(a1-2)[GalNAc(a1-3)]Gal(b1-3)GalNAc(b1-3)Gal(a1-4)Gal(b1-4)Glc
# In short: as §1
# [5] = target: Fuc(a1-2)[GalNAc(a1-3)]Gal(b1-3)GlcNAc
# In short: as §1
# [6] = target: Fuc(a1-2)[GalNAc(a1-3)]Gal(b1-3)GlcNAc(b1-2)Man(a1-3)[Fuc(a1-2)[GalNAc(a1-3)]Gal(b1-3)GlcNAc(b1-2)Man(a1-6)]Man(b1-4)GlcNAc(b1-4)GlcNAc
# In short: as §1
# [7] = target: Fuc(a1-2)[GalNAc(a1-3)]Gal(b1-3)GlcNAc(b1-2)Man(a1-3)[Fuc(a1-2)[GalNAc(a1-3)]Gal(b1-3)GlcNAc(b1-2)Man(a1-6)]Man(b1-4)GlcNAc(b1-4)[Fuc(a1-6)]GlcNAc
# In short: as §1
# [8] = target: Fuc(a1-2)[GalNAc(a1-3)]Gal(b1-3)GlcNAc(b1-3)GalNAc
# In short: as §1
# [9] = target: Fuc(a1-2)[GalNAc(a1-3)]Gal(b1-3)GlcNAc(b1-6)GalNAc
# In short: as §1
# [10] = target: Fuc(a1-2)[GalNAc(a1-3)]Gal(b1-4)Glc
# In short: as §1
# [11] = target: Fuc(a1-2)[GalNAc(a1-3)]Gal(b1-4)GlcNAc
# In short: as §1
# [12] = target: Fuc(a1-2)[GalNAc(a1-3)]Gal(b1-4)GlcNAc(b1-2)Man
# In short: as §1
# [13] = target: Fuc(a1-2)[GalNAc(a1-3)]Gal(b1-4)GlcNAc(b1-2)Man(a1-3)[Fuc(a1-2)[GalNAc(a1-3)]Gal(b1-4)GlcNAc(b1-2)Man(a1-6)]Man(b1-4)GlcNAc(b1-4)GlcNAc
# In short: as §1
# [14] = target: Fuc(a1-2)[GalNAc(a1-3)]Gal(b1-4)GlcNAc(b1-2)Man(a1-3)[Fuc(a1-2)[GalNAc(a1-3)]Gal(b1-4)GlcNAc(b1-2)Man(a1-6)]Man(b1-4)GlcNAc(b1-4)[Fuc(a1-6)]GlcNAc
# In short: as §1
# [15] = target: Fuc(a1-2)[GalNAc(a1-3)]Gal(b1-4)GlcNAc(b1-3)Gal(b1-4)GlcNAc
# In short: as §1
# [16] = target: Fuc(a1-2)[GalNAc(a1-3)]Gal(b1-4)GlcNAc(b1-3)Gal(b1-4)GlcNAc(b1-3)Gal(b1-4)GlcNAc
# In short: as §1
# [17] = target: Fuc(a1-2)[GalNAc(a1-3)]Gal(b1-4)GlcNAc(b1-3)GalNAc
# In short: as §1
# [18] = target: Fuc(a1-2)[GalNAc(a1-3)]Gal(b1-4)GlcNAc(b1-3)[Fuc(a1-2)[GalNAc(a1-3)]Gal(b1-4)GlcNAc(b1-6)]GalNAc
# In short: as §1
# [19] = target: Fuc(a1-2)[GalNAc(a1-3)]Gal(b1-4)GlcNAc(b1-6)GalNAc
# In short: as §1
# [20] = target: Fuc(a1-2)[GalNAc(a1-3)]Gal(b1-4)[Fuc(a1-3)]GlcNAc
# In short: as §1
# [21] = target: Fuc(a1-2)[GalNAc(a1-3)]Gal(b1-4)[Fuc(a1-3)]GlcNAc(b1-3)GalNAc
# In short: as §1
# [22] = target: Fuc(a1-2)[GalNAc(a1-4)]Gal(b1-4)GlcNAc
# In short: as §1
# [23] = target: Fuc(a1-2)[GalNAc(b1-3)]Gal
# In short: as §1
# [24] = target: Fuc(a1-3)GlcNAc
# In short: as §1
# [25] = target: Fuc(a1-3)[Gal(b1-4)]Glc6S
# In short: as §1
# [26] = target: Fuc(a1-3)[Gal(b1-4)]GlcNAc
# In short: as §1
# [27] = target: Fuc(a1-3)[Gal(b1-4)]GlcNAc(b1-2)Man
# In short: as §1
# [28] = target: Fuc(a1-3)[Gal(b1-4)]GlcNAc(b1-2)Man(a1-3)[Fuc(a1-3)[Gal(b1-4)]GlcNAc(b1-2)Man(a1-6)]Man(b1-4)GlcNAc(b1-4)GlcNAc
# In short: as §1
# [29] = target: Fuc(a1-3)[Gal(b1-4)]GlcNAc(b1-2)Man(a1-3)[Fuc(a1-3)[Gal(b1-4)]GlcNAc(b1-2)Man(a1-6)]Man(b1-4)GlcNAc(b1-4)[Fuc(a1-6)]GlcNAc
# In short: as §1
# [30] = target: Fuc(a1-3)[Gal(b1-4)]GlcNAc(b1-3)Gal(b1-3)[Fuc(a1-4)]GlcNAc
# In short: as §1
# [31] = target: Fuc(a1-3)[Gal(b1-4)]GlcNAc(b1-3)Gal(b1-4)[Fuc(a1-3)]GlcNAc
# In short: as §1
# [32] = target: Fuc(a1-3)[Gal(b1-4)]GlcNAc(b1-3)Gal(b1-4)[Fuc(a1-3)]GlcNAc(b1-3)Gal(b1-4)[Fuc(a1-3)]GlcNAc
# In short: as §1
# [33] = target: Fuc(a1-3)[Gal(b1-4)]GlcNAc(b1-3)GalNAc
# In short: as §1
# [34] = target: Fuc(a1-3)[Gal(b1-4)]GlcNAc(b1-6)GalNAc
# In short: as §1
# [35] = target: Fuc(a1-3)[Gal(b1-4)]GlcNAc(b1-6)[Gal(b1-3)GlcNAc(b1-3)]Gal(b1-4)Glc
# In short: as §1
# [36] = target: Fuc(a1-3)[Gal(b1-4)]GlcNAc6S
# In short: as §1
# [37] = target: Fuc(a1-3)[Gal3S(b1-4)]Glc
# In short: as §1
# [38] = target: Fuc(a1-3)[Gal3S(b1-4)]GlcNAc
# In short: as §1
binder,measurement,setting,value
B1,glycan array binding signal (z-score),[1],-0.825
same,glycan array binding signal (z-score),[2],-0.238
same,glycan array binding signal (z-score),[3],-0.082
same,glycan array binding signal (z-score),[4],-1.08
same,glycan array binding signal (z-score),[5],0.476
same,glycan array binding signal (z-score),[6],0.811
same,glycan array binding signal (z-score),[7],-0.111
same,glycan array binding signal (z-score),[8],1.38
same,glycan array binding signal (z-score),[9],1.19
same,glycan array binding signal (z-score),[10],-0.933
same,glycan array binding signal (z-score),[11],0.474
same,glycan array binding signal (z-score),[12],-0.752
same,glycan array binding signal (z-score),[13],0.896
same,glycan array binding signal (z-score),[14],-0.754
same,glycan array binding signal (z-score),[15],-0.385
same,glycan array binding signal (z-score),[16],0.353
same,glycan array binding signal (z-score),[17],-0.191
same,glycan array binding signal (z-score),[18],-0.711
same,glycan array binding signal (z-score),[19],-0.035
same,glycan array binding signal (z-score),[20],0.082
same,glycan array binding signal (z-score),[21],-1.63
same,glycan array binding signal (z-score),[22],-0.996
same,glycan array binding signal (z-score),[23],-0.554
same,glycan array binding signal (z-score),[24],-1.46
same,glycan array binding signal (z-score),[25],0.117
same,glycan array binding signal (z-score),[26],-0.37
same,glycan array binding signal (z-score),[27],1.18
same,glycan array binding signal (z-score),[28],-0.401
same,glycan array binding signal (z-score),[29],1.05
same,glycan array binding signal (z-score),[30],0.209
same,glycan array binding signal (z-score),[31],-0.011
same,glycan array binding signal (z-score),[32],-0.07
same,glycan array binding signal (z-score),[33],-0.986
same,glycan array binding signal (z-score),[34],-0.897
same,glycan array binding signal (z-score),[35],-1.03
same,glycan array binding signal (z-score),[36],0.67
same,glycan array binding signal (z-score),[37],0.085
same,glycan array binding signal (z-score),[38],1.22

# Two entries drawn at random from those above, as already listed:
binder,measurement,setting,value
B1,glycan array binding signal (z-score),[16],0.353
same,glycan array binding signal (z-score),[15],-0.385
